Among the data in PubChem BioAssay AID1487 (National Center for Advancing Translational Sciences (NCATS), 2009) are AC50 values, retold here.

Where “and” joins values, the source holds several entries; their conditions need not be identical. Equal entries are not always repeated. The list shows a part of the results. Shown are side measurements of this screen, not its main read-out; they come without a call. Most of these compounds were active or inconclusive in the main read-out, so they are no random draw. Words in brackets tell the shape of the fitted curve; partial curves, single points and poor fits give uncertain potencies.

The assay can be described thus: qHTS Assay for Modulators of Lamin A Splicing. The settings on record: HeLa LMNA splicing GFP/RFP minigene ratio, 48 h. An outline of the steps:
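S3 HeLa cells stably expressing lamin A-EGFP splicing minigene plus DsRed2, 600 cells/well, 48 h compound exposure at 37C. Laser-scanning cytometry; analysed as GFP (500-530 nm)/RFP (575-640 nm) total intensity ratio; 0.5% DMSO vehicle.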

Setting [1] is: measured here: RFP viability control channel.
Setting [2] is: measured here: GFP splicing reporter channel.

One may read the AC50 as the midpoint of the concentration-response curve, whichever way the signal moves. As for `O=c1cnn(-c2ccc(Cl)cc2Cl)c(-c2ccccc2)c1`, the AC50 under setting [1] is 25.1 µM [rising, single point].

On to `O=C(CC1NCCNC1=O)Nc1cccc([N+](=O)[O-])c1` (configuration not stated), for which the AC50 is, setting by setting: under setting [2], 1.26 µM [falling, partial curve]; under setting [1], 1.41 µM [falling, partial curve, poor fit].

For `CCc1ccccc1Nc1nc(N)nc(COC(=O)c2cccn2C)n1`, the AC50 under setting [1] is 11.2 µM [rising, partial curve].

For the compound `C/C(=N\NC(=S)NCc1ccccc1)c1ccc(Cl)cc1`, the AC50 by setting is: under setting [2], 35.5 µM [rising, single point]; under setting [1], 35.5 µM [rising, single point].

Consider `CSc1nc2ccc(NC(=O)C3CC(=O)N(Cc4ccccc4)C3)cc2s1` (configuration not stated), for which the AC50 under setting [2] was 0.0708 µM [falling, partial curve].

Take `Cc1ccc(S(=O)(=O)NCC(=O)N/N=C/c2ccc(Cl)cc2)cc1`: the AC50 under setting [1] is 35.5 µM [rising, partial curve].

As to `CCc1c(O)nc(SCC(=O)Nc2ccc(C)cc2)n(C2CCCCC2)c1=O`, the AC50 under setting [2] was 17.8 µM [rising, single point] and the AC50 under setting [1] was 25.1 µM [rising, single point].

With `COc1ccc(N(CC2CO2)S(=O)(=O)c2ccccc2)cc1` (configuration not stated), the AC50 under setting [1] is 14.1 µM [rising, single point].

In the case of `CC(=O)c1c(C(C)=O)c(C)n(-c2nc(-c3ccc(Br)cc3)c(C)s2)c1C`, the AC50 under setting [2] was 35.5 µM [rising, single point].

As for `CC(C)(C)NC[C@H](O)c1cc(O)cc(O)c1`, the AC50 under setting [1] is 7.94 µM [rising, single point].

In the case of `Cc1ccc(N2C(=O)C3C4C=CC(CNC(=S)Nc5ccc(Cl)cc5)(O4)C3C2=O)cc1` (configuration not stated), the AC50 under setting [1] was 22.4 µM [rising, single point].

Take `Cc1ccc(Cl)c2sc(N3CCN(C(=O)C4CC4)CC3)nc12`: the AC50 under setting [2] is 0.447 µM [falling, single point] and the AC50 under setting [1] was 0.178 µM [falling, partial curve, poor fit].

Consider `COc1ccccc1C(=O)N1CCN(Cc2ccc3c(c2)OCO3)CC1`, for which the AC50 under setting [1] was 15.8 µM [rising, single point].

For the compound `COC(=O)c1c(NC(=O)c2ccc(S(=O)(=O)N3CCCC(C)C3)cc2)sc2c1CCN(C(C)C)C2` (configuration not stated), the AC50 under setting [1] is 12.6 µM [falling, partial curve, poor fit].

On to `CC(C)N(C(=O)COC(=O)c1cccc(C(=O)OCC(=O)N(C(C)C)C(C)C)n1)C(C)C`, for which the AC50 under setting [2] is 11.2 µM [falling, partial curve, poor fit].

On to `Cc1cccc(Nc2nc(-c3ccccc3)c(C(=O)Nc3cccnc3)s2)c1`, for which the AC50 by setting is: under setting [2], 35.5 µM [falling, single point]; under setting [1], 35.5 µM [falling, single point].

Regarding `CCn1nc(C)c(NC(=O)c2cnn3c(C(F)F)cc(-c4ccccc4)nc23)c1C`, the AC50 under setting [2] is 1.26 µM [rising, partial curve].

Turning to `O=c1c2ccccc2nnn1Cc1cccc2ccccc12`, the AC50 under setting [2] is 0.0141 µM [rising, full curve, poor fit].

In the case of `O=C(Nc1nc(-c2cc(Cl)sc2Cl)cs1)c1ccccc1`, the AC50 under setting [1] is 25.1 µM [rising, single point].

For the compound `CCCCCCOC(=O)C[N+](C)(C)CCOC1CC2CCC1(C)C2(C)C` (configuration not stated), the AC50 under setting [1] was 12.6 µM [rising, partial curve, poor fit].

On to `Nc1ccc(NC(=O)c2cccs2)cc1`, for which the concentration at half-maximal activity (AC50) under setting [1] is 0.02 µM [falling, full curve, poor fit].

As for `Cc1cc(C(=O)OC(C(=O)Nc2ccc(C)c(Cl)c2)c2ccccc2)c(C)o1` (configuration not stated), under setting [1], the half-maximal activity concentration (AC50) is 35.5 µM [rising, single point].

Consider `COc1ccc(NC(=O)c2cccc(Oc3ccc([N+](=O)[O-])cc3Cl)c2)cc1`, for which the AC50 under setting [1] was 20 µM [rising, single point].

With `CCS(=O)(=O)Nc1ccc(-c2ccc(NS(=O)(=O)CC)c(OC)c2)cc1OC`, the AC50 under setting [1] was 10 µM [rising, partial curve].

Regarding `Cc1cc([N+](=O)[O-])nn1CC(=O)Nc1ccc(Cl)cn1`, the AC50 by setting is: under setting [2], 5.62 µM [rising, partial curve, poor fit]; under setting [1], 0.316 µM [rising, full curve].

On to `O=C(COc1ccc(Cl)cc1Cl)Nc1ccc(S(=O)(=O)NC2=NCCCCC2)cc1`, for which, under setting [1], the AC50 is 35.5 µM [rising, single point].

In the case of `COc1ccc(COc2cc(-c3cccc(OC)c3)nc3ccc(NC(=O)c4cccnc4)cc23)cc1`, the AC50 under setting [1] is 15.8 µM [rising, single point].

Take `N#Cc1c(NC(=O)c2ccncc2)sc2c1CCC2`: the AC50 under setting [1] is 0.0708 µM [rising, partial curve].

For the compound `Cc1ccc(C)c(N2CCN(c3ncnc4c3nc3n4CCCCC3)CC2)c1`, the AC50 was 35.5 µM [falling, single point] under setting [2] and 35.5 µM [falling, single point] under setting [1].

As to `C=CCO/N=C(\C)c1c(O)c(C)c(-c2ccccc2)n(-c2ccccc2)c1=O`, the AC50 under setting [1] was 14.1 µM [rising, partial curve, poor fit].

Regarding `O=c1[nH]c2ccccc2c2ccccc12`, the AC50 is 20 µM [rising, partial curve] under setting [2] and 6.31 µM [rising, single point] under setting [1].

`Cc1snc(S(=O)(=O)Cc2ccccc2Cl)c1C#N`: the AC50 under setting [1] is 0.00562 µM [falling, full curve, poor fit].

Consider `COc1cc2c(cc1OC)C(c1ccccc1)N(C(=O)CSCC(=O)O)CC2` (configuration not stated), for which the AC50 under setting [1] was 31.6 µM [rising, single point].

On to `COc1ccc(NC(=O)CC(c2ccc(F)cc2)c2ccc(OC)cc2)cc1` (configuration not stated), for which the AC50 under setting [1] is 17.8 µM [rising, partial curve, poor fit].

Consider `CCOc1nc2ccccc2nc1NS(=O)(=O)c1ccccc1`, for which the AC50 under setting [1] was 0.0316 µM [rising, full curve, poor fit].

`CC(=O)N1N=C(c2ccc3ccccc3c2)OC12CCCC2`: the AC50 by setting is: under setting [2], 25.1 µM [falling, single point]; under setting [1], 35.5 µM [falling, single point].

Regarding `C#CCN(C)Cc1ccccc1`, the AC50 runs as follows: under setting [2], 2.82 nM [falling, full curve, poor fit] and 3.16 µM [falling, full curve]; under setting [1], 8.91 µM [falling, single point] and 2.82 µM [falling, full curve].
